Results reported in publication PMC9360328.
Construct, isoform or probe ends are uncertain for at least one entry. At least one verdict was read from the data and is not stated in words by the source.

By UniProt entry, the sequences of proteins in these tests, tags left out. Residues count along the entry.
UniProt Q05066, 56-141: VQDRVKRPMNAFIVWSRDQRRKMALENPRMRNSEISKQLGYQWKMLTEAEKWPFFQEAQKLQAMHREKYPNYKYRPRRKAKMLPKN

Target: SRY HMG box WT (Homo sapiens) (UniProt Q05066)
Assay: CD thermal unfolding of equimolar complex
Conditions: 25 uM (Methods), complex stable at 37 C; PGE: 10 nM DNA, 20 nM protein, 0.5x TBE, 4 C; recombinant protein

## TCGGTGATTGTTCAG (double strand) [15-bp consensus SRY site, unlabeled]
  binding result: binds
